Data from PubChem BioAssay AID1745846 (National Center for Advancing Translational Sciences (NCATS), 2022).
What follows is the remainder of the data, with few or none of the hits. Results filed as inconclusive are left out. Activity calls are given as the source filed them. Calls follow the shape of the dose curve; as a rule, active = well fitted inhibition curve with a large enough effect; inconclusive = small, poorly fitted or top-dose-only effect; inactive = flat fitted curve, though single readings scatter.

Assay: Firefly Luciferase Counterscreen for Inhibitors of ATXN expression
Conditions: luminescence; at 57.5 µM (top of the series)
Description: University of Utah School of Medicine, Salt Lake City, Utah
Spinocerebellar ataxia type 2 (SCA2) is a multisystem neurodegenerative disease caused by a dominantly acting mutation leading to expansion of a polyQ domain in the ataxin-2 protein (ATXN2). SCA2 patients develop progressive ataxia and later lose function in other neuronal systems. Prominent parkinsonian signs develop in some patients. Like many neurodegenerative disorders, no symptomatic or disease-modifying treatments are known.
The primary objective of the proposed research is to identify compounds inhibiting ATXN2 expression and to test them for efficacy in SCA2 mouse models. We have developed a cell-based assay paired with an in vivo mouse model using identical luciferase expression constructs. This approach takes advantage of an ATXN2-luciferase transgene, with the luciferase gene flanked by the upstream and downstream portions of the ATXN2 gene. Here we describe a 5-7 dose quantitative high thoroughput screen (qHTS) for compounds lowering ATXN2 expression. […]
5; Detection; Luminescence; Viewlux plate reader (PerkinElmer). […]
5. End-point luminescence is then measured on the Viewlux (PerkinElmer) imager equipped with a clear emission filter using a 2 sec exposure. […]
% is scaled to controls: 0 for no effect and ±100 for the full control effect.

SMILES	activity change, negative = inhibition
COc1ccccc1C(=O)NNC(=S)NC(=O)c1ccco1	inactive: -17.4%
